Measured values reported in patent US6639121B1, “Inducible cancer model to study the molecular basis of host tumor cell interactions in vivo” (Dana-Farber Cancer Institute, Inc., priority 1999, dated 2003).
For at least one compound, name, drawing or mass did not settle the structure.

Tests used:
[1] = system: Tyr/Tet-RAS INK4a−/− tumor derived cell lines; experiment: Growth curves of melanoma cell lines with or without doxycycline; format: cell-based, mouse
Tet-RAS INK4a−/− mice = experiment: Doxycycline treatment of single transgenic control mice; format: in vivo, mouse; conditions: treated Tet-RAS INK4a−/− mice (n=23)
[2] = system: Tyr/Tet-RAS INK4a−/− mice; experiment: Doxycycline-induced melanoma development in transgenic mice; format: in vivo, mouse; conditions: doxycycline in the drinking water (2 mg/ml sucrose water) from weaning
From the text: To develop a cancer model in which dominantly acting oncoproteins are somatically regulated in vivo, transgenic mouse lines harboring the reverse tetracycline transactivator^2 under the control of the tyrosinase gene promoter-enhancer elements (designated Tyr-rtTA) and another containing the H-RAS^V12G open reading frame driven by a minimal promoter containing multimerized tet-operons.^2,3 (designated Tet-RAS) were inter-crossed with INK4a+/− mice to generate cohorts of single and double transgenic mice (designated Tyr/Tet-RAS) homozygous null for INK4a. Upon weaning, a subset of single and double transgenic INK4a −/− mice were administered doxycycline in the drinking water^4. In the doxycycline-treated group, 10 of 40 Tyr/Tet-RAS INK4a−/− mice developed melanomas with an average latency of 60 days (FIG. 1A). […] The Tyr/Tet-RAS INK4a−/− melanomas shared all of the macroscopic features of the constitutive Tyr-RAS INK4a−/− melanomas 5, manifesting as amelanotic, invasive and highly vascular tumors—features reminiscent of nodular-type melanoma in humans (for example, see FIGS. 2A&B).
Production of the transgenic mice. The reverse tetracycline transactivator (rtTA) is a 1050 bp EcoRI/BamHI fragment isolated from pUHD172-1neo^2. The Tet promoter contains a XhoI/EcoRI fragment of CMV minimal promoter linked to the tet operator sequences^2. […]

## C[C@H]1c2cccc(O)c2C(=O)C2=C(O)[C@]3(O)C(=O)C(C(N)=O)=C(O)[C@@H](N(C)C)[C@@H]3[C@@H](O)[C@@H]21 [doxycycline]
[1]; 0.5% and 1% FCS
  growth potential in low serum conditions: failed to confer enhanced growth potential
[1]; dense cultures
  growth in dense cultures: modestly enhanced the growth
[1]; multiple independently derived lines, doxycycline 2 μg/ml media
  influence on subconfluent growth rates: did not significantly influence
Tet-RAS INK4a−/− mice
  melanoma development: failed to develop melanomas
[2]
  mice that developed melanomas: 10 of 40
